{"source": "PubChem BioAssay AID540276", "about": "(National Center for Advancing Translational Sciences (NCATS), 2011)", "note": "Among all 300,000 compounds or so, about 5,400 (1.8%) were called active. This list was built around the results that the source calls inconclusive (neither active nor inactive); the mix of calls is not that of the screen. The call rests on the fitted dose curve; tested in HEK293 cells. Potencies beside an inconclusive call are fits to weak or partial responses and may not hold up. On the % scale 0 is the no-effect control and ±100 the full control effect; potency means the concentration at half of the fitted maximal effect.", "data": [{"assay": "qHTS for inhibitors of binding or entry into cells for Marburg Virus", "settings": "Marburg virus pseudotyped entry inhibition, cell reporter; activity change, negative = inhibition: at 37.8 µM (top of the series) unless noted", "values": [{"smiles": "COc1ccc(CN(C)S(=O)(=O)c2nnc(NC(=O)c3cccc(F)c3)s2)cc1OC", "activity change, negative = inhibition": "inactive: 4.14% [at 46.1 µM]"}, {"smiles": "O=C(COC(=O)CN1CCSC1=O)Nc1ccc(F)cc1Cl", "Potency": "inconclusive: 31.6 µM [activator, single point]"}, {"smiles": "O=S(=O)(NC1c2cccc3cccc(c23)C1N1CCN(CCO)CC1)c1ccccc1", "note": "(configuration not stated)", "Potency": "inconclusive: 35.5 µM [inhibitor, single point]"}, {"smiles": "Nc1nnc(-c2cn(-c3ccccc3)nc2-c2ccc(Cl)cc2)o1", "Potency": "inconclusive: 35.5 µM [inhibitor, partial curve, poor fit]"}, {"smiles": "CCCOc1ccc(-c2nn(-c3ccccc3)cc2C2NC(=O)NC(C)=C2C(=O)OC(C)C)cc1", "note": "(configuration not stated)", "Potency": "inconclusive: 10 µM [inhibitor, partial curve, poor fit]"}, {"smiles": "O=C1Nc2c(c(=O)[nH]c(=O)n2-c2ccccc2)C1(NS(=O)(=O)c1ccc(Cl)cc1)C(F)(F)F", "note": "(configuration not stated)", "activity change, negative = inhibition": "inactive: 7.8% [at 46.1 µM]"}, {"smiles": "OC(CCN1CCCC1)(c1ccccc1)C1CCCCC1", "note": "(configuration not stated)", "Potency": "inconclusive: 8.2 µM [inhibitor, partial curve, poor fit]"}, {"smiles": "CC(=O)c1cccc(NC(=O)c2ccncc2)c1", "Potency": "inconclusive: 0.259 µM [inhibitor, partial curve, poor fit]"}, {"smiles": "CC(C)c1ccc(NC(=O)c2cc(S(=O)(=O)NCC3COc4ccccc4O3)ccc2F)cc1", "note": "(configuration not stated)", "Potency": "inconclusive: 35.5 µM [inhibitor, single point]"}, {"smiles": "CCN(CC)CCn1c(=S)[nH]c2cc3c(cc2c1=O)OCO3", "Potency": "inconclusive: 1.16 µM [inhibitor, full curve, poor fit]"}, {"smiles": "CS(=O)(=O)N(Cc1ccccc1)c1ccccc1C(=O)Nc1ccccc1C(=O)NCc1ccco1", "Potency": "active: 4.11 µM"}, {"smiles": "COc1cc2c(cc1NC(=O)CSc1nnc(COc3ccc(Cl)cc3)n1C)oc1ccccc12", "Potency": "inconclusive: 10.3 µM [inhibitor, partial curve, poor fit]"}, {"smiles": "CCCCCC(=O)Nc1ccc(C(=O)COC(=O)CN2C(=O)NC3(CCCC3)C2=O)cc1", "activity change, negative = inhibition": "inactive: 2.21%"}, {"smiles": "COc1cccc(-n2nnc3c(=O)n(CC(=O)N4CCCCC4)cnc32)c1", "Potency": "inconclusive: 29.1 µM [activator, single point]"}, {"smiles": "O=C1C2C3C=CC(C3)C2C(=O)N1/N=C/c1ccc(-c2ccccc2[N+](=O)[O-])o1", "note": "(configuration not stated)", "Potency": "inconclusive: 11.2 µM [activator, partial curve, poor fit]"}, {"smiles": "O=C(Cc1ccccc1)Nc1nc2ccccc2[nH]1", "Potency": "inconclusive: 23.1 µM [activator, single point]"}, {"smiles": "CC(C)Cn1c(=O)c2ccccc2n2c(CCC(=O)Nc3cccc(Cl)c3)nnc12", "activity change, negative = inhibition": "inactive: -3.71% [at 46.1 µM]"}, {"smiles": "CCOC(=O)N1CCN(C(=O)C2CCC(=O)N(Cc3ccc(Cl)cc3)C2)CC1", "note": "(configuration not stated)", "Potency": "inconclusive: 8.91 µM [activator, partial curve, poor fit]"}, {"smiles": "Cc1c(Cl)ccc2c(C(=O)NCCN3CCCCC3)cc(-c3ccccn3)nc12", "Potency": "inconclusive: 35.5 µM [inhibitor, partial curve, poor fit]"}, {"smiles": "Cc1ccc(OCC(=O)Nc2ccc(N(C)C)cc2)cc1", "activity change, negative = inhibition": "inactive: 18.9%"}, {"smiles": "Cc1c(NC(=O)C(C)OC(=O)C(NC(=O)c2ccco2)C(C)C)c(=O)n(-c2ccccc2)n1C", "note": "(configuration not stated)", "Potency": "inconclusive: 20.6 µM [activator, single point]"}, {"smiles": "Cn1c(N2CCCCC2)nc2c1c(=O)[nH]c(=O)n2C", "Potency": "inconclusive: 3.66 µM [inhibitor, full curve, poor fit]"}, {"smiles": "CCOC(=O)c1cnc2cc(Cl)c(OC)cc2c1NCC1CCCO1", "note": "(configuration not stated)", "Potency": "inconclusive: 6.31 µM [inhibitor, partial curve, poor fit]"}, {"smiles": "Cc1cccc(NC(=O)CCN2C(=O)C3C4C=CC(C4)C3C2=O)c1", "note": "(configuration not stated)", "activity change, negative = inhibition": "inactive: 13.5%"}, {"smiles": "CCc1ccc(/C(C)=N/NC(=O)c2c[nH]c3ccccc23)s1", "Potency": "inconclusive: 12.6 µM [activator, single point]"}, {"smiles": "Cc1c(Cl)cccc1NC(=S)N(Cc1ccccc1)Cc1cccnc1", "Potency": "inconclusive: 22.4 µM [inhibitor, partial curve, poor fit]"}, {"smiles": "O/N=C/c1ccnc(SCc2ccc(Cl)cc2)n1", "Potency": "inconclusive: 0.447 µM [activator, full curve, poor fit]"}, {"smiles": "CN1CCN(c2ccccc2NC(=O)c2cccc(OCc3ccccc3)c2)CC1", "Potency": "inconclusive: 29.1 µM [inhibitor, single point]"}, {"smiles": "CCC(Sc1nc2n[nH]c(C)c2c(=N)n1-c1cccc(Cl)c1)C(=O)NCCOC", "note": "(configuration not stated)", "Potency": "inconclusive: 2.82 µM [inhibitor, full curve]"}, {"smiles": "Cc1cc2c(c(=O)n1-c1ccccc1)[C@H]1O[C@](c3ccsc3)(Cc3ccccc31)O2", "Potency": "inconclusive: 2.66 µM [inhibitor, single point]"}, {"smiles": "O=C(Nc1cccc(C(F)(F)F)c1)c1scc2c1OCCO2", "Potency": "inconclusive: 35.5 µM [activator, single point]"}, {"smiles": "COc1ccc(Cn2c(=O)[nH]c3cc(C(=O)N4CCN(c5cc(C)ccc5C)CC4)ccc3c2=O)cc1", "Potency": "inconclusive: 14.1 µM [activator, single point]"}, {"smiles": "COc1cccc(C2CCCCN(C)C2=O)c1", "note": "(configuration not stated)", "Potency": "inconclusive: 35.5 µM [activator, single point]"}, {"smiles": "O=C(Nc1ccc(Cl)cc1)OC1CN2CCC1CC2", "note": "(configuration not stated)", "activity change, negative = inhibition": "inactive: 9.91%"}, {"smiles": "COc1cc(OC)cc(C(=O)NC(=S)Nc2ccc(NC(=O)c3ccco3)cc2)c1", "Potency": "inconclusive: 14.1 µM [inhibitor, single point]"}, {"smiles": "CC(C)(C)C1(O)CC(C(F)(F)F)=NN1C(=O)Cc1ccc([N+](=O)[O-])cc1", "note": "(configuration not stated)", "Potency": "inconclusive: 0.58 µM [inhibitor, full curve, poor fit]"}, {"smiles": "CCOCCCN(CC(=O)NC1CCCC1)C(=O)C(=O)Nc1ccc2c(c1)OCCO2", "activity change, negative = inhibition": "inactive: 9.43% [at 46.1 µM]"}, {"smiles": "Cc1ccc(/C=C/C(=O)Nc2nc3ccccc3[nH]2)cc1", "Potency": "inconclusive: 1.12 µM [activator, partial curve]"}, {"smiles": "Cc1ccccc1NC(=O)Nc1nnc(CC(=O)NCc2ccccc2)s1", "Potency": "inconclusive: 35.5 µM [inhibitor, single point]"}, {"smiles": "CCN(C(=O)COC(=O)c1cnccn1)c1cccc2ccccc12", "Potency": "inconclusive: 11.2 µM [inhibitor, partial curve]"}, {"smiles": "COCC(=O)NNC(=S)Nc1cccc(C)c1C", "Potency": "inconclusive: 2.82 µM [activator, single point]"}, {"smiles": "NC(=O)C1(N2CCCCC2)CCN(C(=O)NC23CC4CC(CC(C4)C2)C3)CC1", "activity change, negative = inhibition": "inactive: 3.95%"}, {"smiles": "CCC(C)n1c(SCC(=O)Nc2cc(C)on2)nc2ccccc2c1=O", "note": "(configuration not stated)", "Potency": "active: 3.98 µM"}, {"smiles": "Cc1cc(C=O)c(C)n1-c1ccc(Cl)c(C(=O)O)c1", "Potency": "inconclusive: 35.5 µM [inhibitor, single point]"}, {"smiles": "Cc1ccc(Cn2ccc(NC(=O)c3cc(-c4ccc(F)cc4)on3)n2)cc1", "Potency": "inconclusive: 4.11 µM [inhibitor, full curve, poor fit]"}, {"smiles": "CC(=O)Nc1ccc(N2C(=O)CC(Sc3nc(C)cc(C)n3)C2=O)cc1", "note": "(configuration not stated)", "activity change, negative = inhibition": "inactive: -0.164%"}, {"smiles": "O=C(COC(=O)C1=COCCO1)Nc1ccc(F)c(F)c1", "Potency": "inconclusive: 0.316 µM [activator, partial curve, poor fit]"}, {"smiles": "O=c1oc2ccccc2c(NCc2ccccc2F)c1[N+](=O)[O-]", "Potency": "inconclusive: 2.31 µM [activator, partial curve, poor fit]"}, {"smiles": "Cc1cc(=O)[nH]c(N/N=C/c2sccc2C)n1", "activity change, negative = inhibition": "inactive: 21.6%"}, {"smiles": "COc1ccccc1-c1ccc(SCc2cccc(F)c2)nn1", "activity change, negative = inhibition": "inactive: -11.9%"}, {"smiles": "CCC(CC)c1nn2c(=O)cc(COc3ccc(NC(=O)c4ccccc4Cl)cc3)nc2s1", "Potency": "inconclusive: 5.01 µM [inhibitor, single point]"}, {"smiles": "COc1cc(/C=C(/C#N)c2nc3ccccc3[nH]2)ccc1OC(=O)c1ccco1", "activity change, negative = inhibition": "inactive: 1.69%"}]}]}
